Our source for the Slope values is patent US11998014B1, “O-{1-[(3,5-dinitrobenzoyl)amino]propan-2-yl} (4-chlorophenyl)carbamothioate as an eco-friendly insecticidal agent against Spodoptera littoralis (boisd.)” (KING FAISAL UNIVERSITY, priority 2024, dated 2024).

Each structure is given as a SMILES string.

The data set concerns Spodoptera littoralis. Put plainly: Insecticidal leaf dip bioassay on S. littoralis larvae (castor bean leaf discs). Conditions: after 72 hours of treatment, probit (LDP-line) slope. The class given is in vivo, Spodoptera littoralis (cotton leafworm, laboratory strain). As to the method:
Five concentrations (200, 100, 50, 25, 12.5 ppm) were designed for this synthetic compound and the reference fenoxycarb's compound as the dynamic ingredients based on ppm via diluting the commercial formulation.
In this experiment, the synthetic compound was tested for its insecticidal bioactivity using the industry-standard leaf dip bioassay techniques. Preparation of the compound stocks to create […], 0.1 g of compounds 2 were dissolved in five mL of Dimethyl formamide & combined with 5 mL of distilled water. Until usage, the stocks were kept in a refrigerator. The target substance test results were noted & the concentrations needed to destroy 50% (LC50) of S. littoralis larvae were calculated. The target compound was employed in five different concentrations, and 0.1% Tween 80 was employed as a surfactant. Castor bean leaf discs (nine centimeters in diameter) were dipped in the concentration under test for ten seconds, then fed to 2th and 4th larvae, which were roughly the same size and housed in glass jars (five pound). Each action carried out 3 times with ten larvae each. The mortality equalized via Abbott's formula. Calculations of mortality setback line were measurably rummage via probity analysis. Harmfulness index was strongminded via sun equations. The mortality results of larval insect were estimated through employing probit analysis through a statistics (LDP-line) equation which estimate the LC50 values with 95% fiducially limits of lower, upper confidence limit and slope.

Turning to `CC(CNC(=O)c1cc([N+](=O)[O-])cc([N+](=O)[O-])c1)OC(=S)Nc1ccc(Cl)cc1` (stereo not shown) [Compound 2, O-{1-[(3,5-dinitrobenzoyl)amino]propan-2-yl} (4-chlorophenyl)carbamothioate], the Slope amounted to 0.246 ± 0.0793 (2nd instar larvae) and 0.297 ± 0.0893 (4th instar larvae).

For `CCOC(=O)NCCOc1ccc(Oc2ccccc2)cc1` [fenoxycarb], the Slope reads like this: (2nd instar larvae) 0.298 ± 0.0808; (4th instar larvae) 0.225 ± 0.0870.
